Drawing on article PMC5917423, this text covers binding for one substance.

This experiment has as its target T1, Epstein-Barr virus tegument protein BGLF2, wild type (Epstein-Barr virus (B95-8)) (UniProt P0CK53).
T1 sequence: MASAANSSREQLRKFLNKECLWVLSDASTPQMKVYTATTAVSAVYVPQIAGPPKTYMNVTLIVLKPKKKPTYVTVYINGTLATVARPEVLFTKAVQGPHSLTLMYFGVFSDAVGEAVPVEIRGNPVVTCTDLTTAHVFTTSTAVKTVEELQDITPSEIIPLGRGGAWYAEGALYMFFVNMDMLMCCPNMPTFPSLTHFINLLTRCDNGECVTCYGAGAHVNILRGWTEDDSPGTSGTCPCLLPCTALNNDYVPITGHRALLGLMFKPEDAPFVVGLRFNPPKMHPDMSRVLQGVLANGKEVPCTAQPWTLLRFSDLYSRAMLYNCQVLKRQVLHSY
In words: co-IP; HEK293T cells transfected with BGLF2 vectors, 24 h; lysis in 20 mM Tris-HCl pH 7.8, 150 mM NaCl, 0.5% NP-40, 1 mM EDTA with protease and phosphatase inhibitors; IP with anti-FLAG mouse antibody and protein G Sepharose at 4°C for >2 h; four washes; immunoblot. (In general: Immunoblotting shows a protein as a band on a membrane.)

These are yes or no findings as the source states them, for the method shown. In cells and extracts the contact can be indirect. A result given as binding can be weak or reduced; the word gives no strength.

Turning to “p38 MAPK (human (endogenous in HEK293T)) (enzyme)”, the binding result is reported as “binds”.
